Measurements reported in PubChem BioAssay AID1259308 (NCATS, 2017).

Test: 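Knock-downs that increase output of a recombinant reporter protein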 (primary screen)
Cell system: human HEK293 embryonic kidney cells stably expressing firefly luciferase (HEK-CMV-Luc2-Hygro)
Knock-down reagent: single siRNA against human genes, 0.8 pmol siRNA per well
Time to read-out: 72 h
Measurement: 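Luciferase light (ONE-Glo) measured on one replicate plate set and viability (CellTiter-Glo) on the other, scaled to a negative control siRNA, with robust z-scores and luciferase per cell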
Scale: total luciferase, z-score: higher = more reporter protein produced
Call rule: 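Active when the median/MAD z-score for overall luciferase is greater than 3; a gene was taken forward for validation with new siRNAs if at least two of its three siRNAs passed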
Meaning of the calls: active = raised luciferase; inactive = no rise
The whole screen tested about 59,000 reagents; this is an unselected part. About 1,510 of all reagents (2.6%) count as active. 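Calls use total luciferase alone and ignore viability, so some active siRNAs may act by altering cell number.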 The numbers tell different reagents against one gene apart. Further read-outs or replicates are left out here.

total luciferase, z-score, by gene and reagent
RARG: #1 5.41 active; #2 -1.31 inactive; #3 -1.52 inactive
MAJIN: #1 1.02 inactive; #2 -0.3 inactive; #3 -0.695 inactive
TTLL5: #1 0.466 inactive; #2 1.09 inactive; #3 3.09 active
LMAN1: #1 -0.783 inactive; #2 1.07 inactive; #3 -1.15 inactive
OLFML2B: #1 0.408 inactive; #2 1.08 inactive; #3 -0.093 inactive
MTX3: #1 -0.726 inactive; #2 0.737 inactive; #3 3.82 active
ZNF670: #1 0.873 inactive; #2 1.31 inactive; #3 -2.33 inactive
BCCIP: #1 0.269 inactive; #2 -1.11 inactive; #3 -1.03 inactive

A few values from above.
OLFML2B #1, activity call: inactive
Result for RARG #3 in “total luciferase, z-score”: -1.52
LMAN1 #2, total luciferase, z-score → 1.07
Result for MTX3 #3 under “activity call”: active
Value of OLFML2B #2 in “total luciferase, z-score”: 1.08
Result for MTX3 #1 under “total luciferase, z-score”: -0.726

The list goes on.
total luciferase, z-score, by gene and reagent
SCPEP1: #1 -0.41 inactive; #2 -1.28 inactive; #3 -2.46 inactive
HKDC1: #1 -1.08 inactive; #2 -0.485 inactive; #3 -1.49 inactive
FAM110A: #1 -1.93 inactive; #2 1.88 inactive; #3 0.36 inactive
OR8D1: #1 -0.092 inactive; #2 2.83 inactive; #3 -1.9 inactive
ZSWIM1: #1 -1.48 inactive; #2 1.73 inactive; #3 -2.18 inactive
